# Test results taken from the supplement of paper PMC11732987, “Enantioselective OTUD7B fragment discovery through chemoproteomics screening and high-throughput optimisation” (Communications Chemistry, 2025).
# By UniProt entry, the sequences of proteins in these tests, tags left out. Where a name states a change or a piece, a line headed by the entry shows the natural chain unless it says otherwise. Residues count along the entry.
# UniProt Q7Z2Z1: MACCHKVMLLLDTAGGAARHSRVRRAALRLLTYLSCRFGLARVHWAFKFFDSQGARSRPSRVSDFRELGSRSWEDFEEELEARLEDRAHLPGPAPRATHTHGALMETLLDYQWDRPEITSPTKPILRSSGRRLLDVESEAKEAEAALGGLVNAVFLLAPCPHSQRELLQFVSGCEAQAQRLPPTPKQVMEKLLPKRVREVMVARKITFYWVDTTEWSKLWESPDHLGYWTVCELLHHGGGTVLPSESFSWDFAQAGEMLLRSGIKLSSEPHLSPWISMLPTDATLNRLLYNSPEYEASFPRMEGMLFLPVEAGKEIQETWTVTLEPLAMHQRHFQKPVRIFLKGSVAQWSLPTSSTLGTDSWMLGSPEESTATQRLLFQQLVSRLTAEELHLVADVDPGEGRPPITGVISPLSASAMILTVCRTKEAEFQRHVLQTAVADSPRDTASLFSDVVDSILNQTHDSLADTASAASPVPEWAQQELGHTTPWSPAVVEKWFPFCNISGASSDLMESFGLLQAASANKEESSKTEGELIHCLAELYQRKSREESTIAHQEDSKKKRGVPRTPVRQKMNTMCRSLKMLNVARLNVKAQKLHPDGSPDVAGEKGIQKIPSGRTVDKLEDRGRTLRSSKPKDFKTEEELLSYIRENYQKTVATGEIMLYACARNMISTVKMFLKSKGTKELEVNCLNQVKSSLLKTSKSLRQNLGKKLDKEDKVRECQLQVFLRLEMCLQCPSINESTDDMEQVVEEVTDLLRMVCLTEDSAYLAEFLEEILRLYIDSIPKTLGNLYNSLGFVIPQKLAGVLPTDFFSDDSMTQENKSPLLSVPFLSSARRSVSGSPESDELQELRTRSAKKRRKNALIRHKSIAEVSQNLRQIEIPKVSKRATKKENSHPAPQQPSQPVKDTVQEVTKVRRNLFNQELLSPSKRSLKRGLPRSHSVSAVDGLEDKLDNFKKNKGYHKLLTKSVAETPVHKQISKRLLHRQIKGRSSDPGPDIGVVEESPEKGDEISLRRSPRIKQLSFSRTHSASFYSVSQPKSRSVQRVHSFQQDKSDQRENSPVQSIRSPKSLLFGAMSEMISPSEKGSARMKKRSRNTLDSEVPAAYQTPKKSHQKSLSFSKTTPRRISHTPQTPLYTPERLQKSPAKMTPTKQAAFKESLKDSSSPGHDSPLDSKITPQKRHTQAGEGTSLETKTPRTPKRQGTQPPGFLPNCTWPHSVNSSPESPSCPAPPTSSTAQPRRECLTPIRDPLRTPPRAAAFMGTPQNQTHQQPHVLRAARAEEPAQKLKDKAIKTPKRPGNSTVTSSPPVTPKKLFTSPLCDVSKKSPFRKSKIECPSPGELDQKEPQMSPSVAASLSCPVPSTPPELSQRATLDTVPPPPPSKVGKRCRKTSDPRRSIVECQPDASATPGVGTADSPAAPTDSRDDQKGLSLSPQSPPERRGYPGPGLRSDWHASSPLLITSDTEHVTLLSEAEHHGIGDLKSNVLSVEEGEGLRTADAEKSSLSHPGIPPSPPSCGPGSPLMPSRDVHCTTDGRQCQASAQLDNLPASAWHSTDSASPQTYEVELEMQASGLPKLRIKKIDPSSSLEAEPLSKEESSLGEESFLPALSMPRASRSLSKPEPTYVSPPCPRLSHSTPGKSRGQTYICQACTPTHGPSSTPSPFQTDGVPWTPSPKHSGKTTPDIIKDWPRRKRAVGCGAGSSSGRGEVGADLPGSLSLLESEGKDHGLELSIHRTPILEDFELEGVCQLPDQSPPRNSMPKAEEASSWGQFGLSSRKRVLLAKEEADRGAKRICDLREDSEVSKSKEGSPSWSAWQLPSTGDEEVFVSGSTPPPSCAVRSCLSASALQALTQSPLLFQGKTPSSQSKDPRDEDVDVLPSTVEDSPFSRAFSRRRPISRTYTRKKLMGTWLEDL
# UniProt Q9C0B7, 427-452: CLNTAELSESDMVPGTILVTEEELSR
# UniProt Q8NHU6, 380-399: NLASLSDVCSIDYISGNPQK
# UniProt O15119: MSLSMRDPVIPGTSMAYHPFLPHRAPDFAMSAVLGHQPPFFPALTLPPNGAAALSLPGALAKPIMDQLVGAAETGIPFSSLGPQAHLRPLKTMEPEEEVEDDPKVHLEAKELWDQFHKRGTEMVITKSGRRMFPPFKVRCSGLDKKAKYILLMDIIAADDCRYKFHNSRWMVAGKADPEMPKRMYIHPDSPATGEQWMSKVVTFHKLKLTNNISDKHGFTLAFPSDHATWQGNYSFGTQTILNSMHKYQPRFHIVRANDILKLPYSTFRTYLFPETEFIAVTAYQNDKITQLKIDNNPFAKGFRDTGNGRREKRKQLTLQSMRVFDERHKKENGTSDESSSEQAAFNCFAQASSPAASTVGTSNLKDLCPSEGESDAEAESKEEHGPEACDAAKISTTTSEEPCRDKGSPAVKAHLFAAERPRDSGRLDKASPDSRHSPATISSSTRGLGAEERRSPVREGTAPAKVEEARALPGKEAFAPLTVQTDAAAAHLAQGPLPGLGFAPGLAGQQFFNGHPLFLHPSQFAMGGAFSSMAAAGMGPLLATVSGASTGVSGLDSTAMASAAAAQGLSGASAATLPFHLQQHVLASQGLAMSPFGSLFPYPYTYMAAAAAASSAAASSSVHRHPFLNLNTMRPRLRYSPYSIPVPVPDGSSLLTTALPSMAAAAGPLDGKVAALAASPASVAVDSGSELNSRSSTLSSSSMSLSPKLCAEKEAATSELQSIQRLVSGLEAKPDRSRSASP
# UniProt O95359, 2201-2222: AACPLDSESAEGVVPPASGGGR
# UniProt Q9Y4P3: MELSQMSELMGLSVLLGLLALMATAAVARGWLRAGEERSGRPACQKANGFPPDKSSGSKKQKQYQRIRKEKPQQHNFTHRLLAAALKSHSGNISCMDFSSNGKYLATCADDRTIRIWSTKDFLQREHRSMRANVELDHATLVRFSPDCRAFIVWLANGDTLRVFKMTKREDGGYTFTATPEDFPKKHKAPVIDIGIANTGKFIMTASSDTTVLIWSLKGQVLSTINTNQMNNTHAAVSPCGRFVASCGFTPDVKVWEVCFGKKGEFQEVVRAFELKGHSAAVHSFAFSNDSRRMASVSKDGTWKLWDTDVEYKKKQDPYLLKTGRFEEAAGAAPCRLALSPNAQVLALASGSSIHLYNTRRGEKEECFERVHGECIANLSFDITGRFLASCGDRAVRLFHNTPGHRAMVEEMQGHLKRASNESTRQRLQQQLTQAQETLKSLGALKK
# UniProt Q5VWN6, 1038-1058: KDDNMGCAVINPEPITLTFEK
# UniProt O75410, 113-133: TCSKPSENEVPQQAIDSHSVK
# UniProt Q9C0D5: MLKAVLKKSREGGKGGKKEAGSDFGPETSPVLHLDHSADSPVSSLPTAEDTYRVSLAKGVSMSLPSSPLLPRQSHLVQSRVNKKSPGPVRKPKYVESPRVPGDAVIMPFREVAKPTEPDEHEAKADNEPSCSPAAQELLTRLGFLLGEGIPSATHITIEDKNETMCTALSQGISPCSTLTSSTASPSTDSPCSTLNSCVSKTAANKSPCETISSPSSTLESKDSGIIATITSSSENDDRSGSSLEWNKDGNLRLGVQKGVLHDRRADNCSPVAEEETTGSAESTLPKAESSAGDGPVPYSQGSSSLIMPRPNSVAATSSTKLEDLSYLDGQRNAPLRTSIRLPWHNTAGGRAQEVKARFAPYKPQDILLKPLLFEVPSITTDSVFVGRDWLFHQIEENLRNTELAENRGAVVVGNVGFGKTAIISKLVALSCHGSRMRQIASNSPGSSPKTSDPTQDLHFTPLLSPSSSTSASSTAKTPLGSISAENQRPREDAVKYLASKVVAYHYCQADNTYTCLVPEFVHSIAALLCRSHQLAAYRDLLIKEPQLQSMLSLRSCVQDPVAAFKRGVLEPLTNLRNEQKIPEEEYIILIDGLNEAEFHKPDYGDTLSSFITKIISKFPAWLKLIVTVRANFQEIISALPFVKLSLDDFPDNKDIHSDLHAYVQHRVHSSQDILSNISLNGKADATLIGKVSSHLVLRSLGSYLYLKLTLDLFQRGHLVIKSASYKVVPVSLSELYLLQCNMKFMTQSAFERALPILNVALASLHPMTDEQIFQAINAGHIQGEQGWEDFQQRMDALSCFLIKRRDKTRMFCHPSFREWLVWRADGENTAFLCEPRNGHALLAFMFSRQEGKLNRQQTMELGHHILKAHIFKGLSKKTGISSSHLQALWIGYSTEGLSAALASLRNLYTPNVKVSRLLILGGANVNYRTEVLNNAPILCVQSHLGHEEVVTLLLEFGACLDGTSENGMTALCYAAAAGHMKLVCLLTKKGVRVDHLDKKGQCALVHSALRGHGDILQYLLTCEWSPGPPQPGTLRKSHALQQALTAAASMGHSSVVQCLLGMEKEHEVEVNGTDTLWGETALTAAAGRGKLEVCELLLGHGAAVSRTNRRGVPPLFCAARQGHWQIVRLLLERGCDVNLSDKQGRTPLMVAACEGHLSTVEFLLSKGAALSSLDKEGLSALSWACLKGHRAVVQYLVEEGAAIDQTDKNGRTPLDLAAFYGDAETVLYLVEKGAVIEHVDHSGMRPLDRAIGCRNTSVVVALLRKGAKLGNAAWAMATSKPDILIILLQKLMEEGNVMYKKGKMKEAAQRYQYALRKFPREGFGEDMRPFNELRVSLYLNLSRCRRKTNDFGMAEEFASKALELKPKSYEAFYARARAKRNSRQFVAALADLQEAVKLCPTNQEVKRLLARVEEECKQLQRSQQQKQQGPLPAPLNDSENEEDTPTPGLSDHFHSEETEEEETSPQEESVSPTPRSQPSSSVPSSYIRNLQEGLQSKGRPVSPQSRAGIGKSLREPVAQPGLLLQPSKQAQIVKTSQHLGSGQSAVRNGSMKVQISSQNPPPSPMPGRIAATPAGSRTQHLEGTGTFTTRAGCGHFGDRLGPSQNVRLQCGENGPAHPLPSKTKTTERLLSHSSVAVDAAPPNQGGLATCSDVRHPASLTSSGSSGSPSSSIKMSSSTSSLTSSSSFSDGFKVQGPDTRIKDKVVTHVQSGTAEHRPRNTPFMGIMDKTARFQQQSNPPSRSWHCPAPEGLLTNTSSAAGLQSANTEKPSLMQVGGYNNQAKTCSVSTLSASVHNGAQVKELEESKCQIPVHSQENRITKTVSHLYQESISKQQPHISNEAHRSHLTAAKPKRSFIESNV
# UniProt O60343, 93-122: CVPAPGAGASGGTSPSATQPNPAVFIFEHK
# UniProt Q9Y6I9, 94-117: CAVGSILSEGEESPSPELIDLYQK
# UniProt Q96BW9, 271-290: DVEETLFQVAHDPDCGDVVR
# UniProt Q9ULP9: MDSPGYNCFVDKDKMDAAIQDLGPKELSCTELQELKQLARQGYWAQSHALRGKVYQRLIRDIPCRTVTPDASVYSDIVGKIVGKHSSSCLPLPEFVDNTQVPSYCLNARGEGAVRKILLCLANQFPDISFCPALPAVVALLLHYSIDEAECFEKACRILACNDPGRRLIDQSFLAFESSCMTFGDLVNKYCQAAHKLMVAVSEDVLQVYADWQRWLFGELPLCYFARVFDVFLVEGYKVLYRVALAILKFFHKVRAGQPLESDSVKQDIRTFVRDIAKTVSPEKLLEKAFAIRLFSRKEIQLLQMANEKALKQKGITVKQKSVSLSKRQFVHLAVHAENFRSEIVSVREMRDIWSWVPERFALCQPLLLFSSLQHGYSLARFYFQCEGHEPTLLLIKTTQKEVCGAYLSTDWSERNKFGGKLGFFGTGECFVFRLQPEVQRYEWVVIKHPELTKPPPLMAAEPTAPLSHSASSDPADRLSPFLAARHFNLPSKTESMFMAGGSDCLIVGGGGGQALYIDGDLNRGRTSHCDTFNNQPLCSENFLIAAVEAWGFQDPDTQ
# UniProt Q9Y4R8, whole entry, looked up: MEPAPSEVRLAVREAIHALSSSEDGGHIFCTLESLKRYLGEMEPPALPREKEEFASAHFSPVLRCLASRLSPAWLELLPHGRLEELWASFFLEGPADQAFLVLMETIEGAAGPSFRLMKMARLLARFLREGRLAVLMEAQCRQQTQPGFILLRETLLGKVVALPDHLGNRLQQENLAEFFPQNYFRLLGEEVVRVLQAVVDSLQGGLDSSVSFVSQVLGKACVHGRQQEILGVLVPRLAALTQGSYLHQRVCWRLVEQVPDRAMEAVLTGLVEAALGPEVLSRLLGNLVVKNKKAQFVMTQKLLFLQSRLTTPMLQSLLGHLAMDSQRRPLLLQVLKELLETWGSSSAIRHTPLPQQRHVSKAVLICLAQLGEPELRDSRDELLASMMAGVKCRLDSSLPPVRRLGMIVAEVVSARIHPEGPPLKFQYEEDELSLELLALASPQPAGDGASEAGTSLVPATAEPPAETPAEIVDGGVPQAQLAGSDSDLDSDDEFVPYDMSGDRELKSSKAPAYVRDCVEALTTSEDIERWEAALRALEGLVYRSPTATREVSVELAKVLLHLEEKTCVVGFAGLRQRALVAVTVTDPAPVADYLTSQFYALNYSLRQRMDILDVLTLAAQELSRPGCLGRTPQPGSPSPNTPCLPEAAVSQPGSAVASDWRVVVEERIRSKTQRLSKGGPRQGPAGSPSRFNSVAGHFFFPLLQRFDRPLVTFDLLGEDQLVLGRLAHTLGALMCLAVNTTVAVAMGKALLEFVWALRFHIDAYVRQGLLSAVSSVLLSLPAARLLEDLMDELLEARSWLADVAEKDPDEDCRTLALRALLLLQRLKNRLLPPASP
# UniProt Q15814, 173-196: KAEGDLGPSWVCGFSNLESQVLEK
# UniProt P37802, 58-78: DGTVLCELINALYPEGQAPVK
# The list shows a part of the results. The data scatter; read single values as rough.
# Key:
# [1] = compound: ClCC(=O)N[C@@H]1CCCc2ccccc12; assay: log2 mean competition ratio of IA-DTB cysteine labelling (DMSO/compound) (log2 ratio); higher = stronger cysteine engagement by compound; conditions: treatment time: 4 h, cell line lysate: HEK293T
# Experimental: (§1)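 IA-DTB competitive cysteine chemoproteomics in HEK293T RIPA lysate. Lysates were treated with compound 29 or 30 at 50 or 200 µM for 4 h, then IA-DTB (500 µM, 1 h), trypsin-digested, NeutrAvidin-enriched and analysed by diaPASEF. Competition ratio = intensity DMSO / intensity compound (n=4 treated, n=64 DMSO); binding: mean log2 CR ≥ 1 and p ≤ 0.05 plus QC filters. Target is the cysteine site.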
# [2] = compound: ClCC(=O)N[C@H]1CCCc2ccccc12; assay: as above; conditions: treatment time: 4 h, cell line lysate: HEK293T
# Experimental: as §1
Target,log2 mean competition ratio ([1]; 50 µM),log2 mean competition ratio ([1]; 200 µM),log2 mean competition ratio ([2]; 50 µM),log2 mean competition ratio ([2]; 200 µM)
TICRR C1791 (UniProt Q7Z2Z1),0.287,0.16,-0.105,0.148
THNSL1 C723 (UniProt Q8IYQ7),0.0457,0.0164,-0.139,0.12
TANGO6 C427 (UniProt Q9C0B7),-0.161,-0.19,-0.0156,-0.124
TDRD7 C333 (UniProt Q8NHU6),0.0851,-0.203,0.396,0.0195
TET2 C501 (UniProt Q6N021),0.24,0.0288,-0.134,-0.0521
TBX3 C404 (UniProt O15119),-0.154,0.393,-0.0948,0.374
TACC3 C749,0.187,-0.206,0.601,0.0652
THAP4 C269 (UniProt Q8WY91),-0.0963,-0.156,-0.194,-0.0668
TACC2 C2203 (UniProt O95359),0.2,-0.296,0.855,-0.267
TCP1 C147 (UniProt P17987),0.176,-0.204,0.293,-0.18
TBL2 C95 (UniProt Q9Y4P3),0.178,0.178,-0.112,0.124
THOC3 C65 (UniProt Q96J01),0.147,-0.0753,0.364,-0.0841
TBC1D2B C726 (UniProt Q9UPU7),-0.0689,0.0998,0.214,0.018
TAB2 C608 (UniProt Q9NYJ8),0.055,0.0976,-0.195,0.196
TEDC1 C87 (UniProt Q86SX3),0.147,0.224,0.18,0.283
TAF4B C160 (UniProt Q92750),0.0988,-0.0704,-0.334,-0.00122
TATDN2 C602 (UniProt Q93075),-0.144,-0.0743,-0.171,-0.254
TBC1D32 C825,-0.176,-0.144,-0.19,-0.126
TAOK2 C1103 (UniProt Q9UL54),0.1,0.00692,0.26,-0.0744
TASOR2 C739 (UniProt Q5VWN6),-0.474,-0.491,-0.0935,-0.382
TAF2 C767 (UniProt Q6P1X5),0.189,-0.451,0.0744,-0.546
TBL2 C259 (UniProt Q9Y4P3),0.355,-0.0402,0.0623,-0.12
TBCK C512 (UniProt Q8TEA7),0.383,-0.0439,-0.226,-0.0421
TACC1 C114 (UniProt O75410),0.578,-0.0926,0.538,-0.0692
TDRD7 C600 (UniProt Q8NHU6),-0.0604,-0.733,0.0116,-0.519

# Complete entries as entered above. Values in the order: log2 mean competition ratio ([1]; 50 µM) | log2 mean competition ratio ([1]; 200 µM) | log2 mean competition ratio ([2]; 50 µM) | log2 mean competition ratio ([2]; 200 µM)
# TACC2 C2203 (UniProt O95359) as listed: 0.2 | -0.296 | 0.855 | -0.267
# TBX3 C404 (UniProt O15119) as listed: -0.154 | 0.393 | -0.0948 | 0.374
# TASOR2 C739 (UniProt Q5VWN6) as listed: -0.474 | -0.491 | -0.0935 | -0.382

# The results go on.

Target,log2 mean competition ratio ([1]; 50 µM),log2 mean competition ratio ([1]; 200 µM),log2 mean competition ratio ([2]; 50 µM),log2 mean competition ratio ([2]; 200 µM)
TANC1 C1400 (UniProt Q9C0D5),0.0379,0.35,0.141,0.319
THOC7 C90 (UniProt Q6I9Y2),-0.127,-0.31,-0.279,-0.393
TBC1D4 C93 (UniProt O60343),-0.00142,-0.084,0.501,-0.144
TES C164 (UniProt Q9UGI8),-0.194,-0.456,0.0695,-0.498
TEX264 C94 (UniProt Q9Y6I9),0.0145,-0.114,0.00414,-0.333
TBC1D4 C388 (UniProt O60343),-0.0734,-0.0837,0.246,-0.023
THADA C588 (UniProt Q6YHU6),-0.0258,-0.0407,0.793,0.0829
THADA C683 (UniProt Q6YHU6),0.134,0.154,0.231,-0.112
TAMM41 C285 (UniProt Q96BW9),-0.329,0.173,-0.386,0.0558
TDRD7 C692 (UniProt Q8NHU6),0.0179,0.000288,-0.174,-0.0763
TBC1D24 C161 (UniProt Q9ULP9),-0.0292,0.0819,-0.0379,0.0991
TANC1 C1594 (UniProt Q9C0D5),0.181,0.184,0.248,0.219
TIAM1 C1061,-0.0305,-0.221,0.224,0.0433
TBCD C457,0.0788,-0.0271,-0.0092,0.0093
THNSL1 C277 (UniProt Q8IYQ7),-0.0348,0.098,0.108,-0.0173
TADA3 C162 (UniProt O75528),0.381,-0.0459,0.106,-0.164
TBC1D4 C885 (UniProt O60343),-0.23,-0.169,-0.201,-0.0919
TBC1D7 C43 (UniProt Q9P0N9),0.288,0.243,0.0787,0.0641
TET1 C1746 (UniProt Q8NFU7),-0.0598,-0.186,-0.319,-0.179
TBC1D2B C554 (UniProt Q9UPU7),-0.226,0.306,-0.351,-0.0152
TASOR2 C1044 (UniProt Q5VWN6),0.279,0.687,-0.26,0.337
TANC2 C162 (UniProt Q9HCD6),0.114,-0.36,0.154,-0.0833
TFAP2C C209,-0.391,0.0715,-0.279,0.292
TES C22 (UniProt Q9UGI8),-0.0185,0.0627,-0.413,-0.0811
TBC1D22B C354 (UniProt Q9NU19),0.191,0.144,0.078,0.339

Target,log2 mean competition ratio ([1]; 50 µM),log2 mean competition ratio ([1]; 200 µM),log2 mean competition ratio ([2]; 50 µM),log2 mean competition ratio ([2]; 200 µM)
THAP12 C644 (UniProt O43422),0.119,0.15,-0.12,-0.0353
TELO2 C141 (UniProt Q9Y4R8),-0.352,0.333,0.123,0.298
TANC1 C800 (UniProt Q9C0D5),0.33,-0.148,0.215,0.384
THOC2 C1152,-0.039,0.156,-0.0965,0.0931
TCF7L2 C372,-0.171,-0.271,0.175,-0.0586
TAOK1 C798 (UniProt Q7L7X3),-0.103,-0.253,-0.259,-0.339
TCP1 C76 (UniProt P17987),0.0605,-0.312,-0.286,-0.404
TBCD C269,0.132,0.00346,0.0466,-0.0116
TAB3 C635 (UniProt Q8N5C8),-0.128,0.0551,-0.168,0.459
TECPR2 C371 (UniProt O15040),-0.0205,0.0466,-0.012,0.328
TAF6L C122 (UniProt Q9Y6J9),0.0296,0.0549,-0.12,0.259
TBC1D8B C468 (UniProt Q0IIM8),0.137,0.00849,0.418,-0.00909
TASOR C195 (UniProt Q9UK61),0.326,-0.235,0.224,-0.118
TDRD3 C98 (UniProt Q9H7E2),0.196,0.272,0.589,0.167
TBC1D13 C282 (UniProt Q9NVG8),0.0111,-0.242,-0.0913,-0.15
TAB3 C590 (UniProt Q8N5C8),0.242,0.0219,-0.102,-0.289
TAF1B C189 (UniProt Q53T94),0.0816,0.0331,0.203,-0.141
TBCC C184 (UniProt Q15814),0.36,0.0534,0.383,0.119
TARS1 C630 (UniProt P26639),-0.345,0.188,0.0378,0.297
TAPT1 C474 (UniProt Q6NXT6),0.223,-0.0544,0.0557,-0.105
TDRKH C160 (UniProt Q9Y2W6),0.745,0.464,0.116,0.279
TDRD7 C388 (UniProt Q8NHU6),-0.129,-0.023,-0.0315,-0.0827
TACC1 C514 (UniProt O75410),-0.049,0.0949,-0.068,0.109
TAGLN2 C63 (UniProt P37802),-0.292,-0.116,0.256,-0.444
TCF25 C367 (UniProt Q9BQ70),-0.242,0.0374,-0.416,0.0339
